# In PubChem BioAssay AID1508600 (Functional Genomics Laboratory (NCATS/FGL), 2020):
# The campaign covered roughly 53,000 sequences. About 3,700 (7%) were called active.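 How the source made its calls: active means gene knockdowns whose robust z-score for IL-1 alpha signal is at least 2 or at most -2, so actives lie on both sides; inactive means the rest.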 This is one part of the list.
# Test: Components of the Cytosolic LPS Sensing Pathway: Gene Identification via Genome-wide siRNA Screen;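 further: robust z of the log signal after scaling to non-targeting control siRNA wells of the plate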
# Details: RAW264.7 macrophages, IL-1a HTRF, actives lie on both sides, screened at 100 nM (by protocol), cells primed 5 h with Pam3CSK4 first
# Summary of the method: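 Knockdown: 100 nM siRNA, 48h, RAW264.7. Stimulation: Pam3CSK4 5 h, then LipidA via TransIT-TKO 24 h. Output: supernatant IL-1a HTRF, negative-control-normalized, log robust z-score; viability by CellTiter-Glo.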
row,Sequence,z-score
1,GGUGCCUUCCAAAAUUACGTT against Slc22a7,inactive: 0.963
2,GGAUAAUCGAAUUGAUUGUTT against Tmem30a,inactive: 0.751
3,GGCAACAGUAUUUAUGAAUTT against Sim2,inactive: -0.45
4,GCUAAAUGAGAACAACUCGTT against Trappc2,inactive: 0.0562
5,GGAAUUGGAUGUGAGCAACTT against Vasn,inactive: 0.586
6,GGAUAAAGGACGAUGAGAUTT against Tmem63b,inactive: 0.586
7,GGAUACCAUCAUUGAUGUCTT against Dmap1,active: -2.29
8,GCUGGGUGAUAAACAAUGUTT against Rhbg,active: 3.42
9,GGCUGUGCUCUCACUCUAUTT against Actg2,inactive: -0.426
10,GGUAAAUGAUCUGAAAAUGTT against Rps6ka6,inactive: -0.46
11,GCUAGGAAUGAUGUGAGGCTT against Ppp5c,inactive: -1.26
12,GGACUGCUUGUGGUAUCUGTT against Shisa4,inactive: -1.94
13,GCCGGAAGGCCAUUUAUAATT against Acadsb,inactive: 0.51
14,GGCGGUAUUUUGCUGAUUUTT against Ccnj,inactive: -0.101
15,GGAAGAGGUUAGCAAGCAUTT against Iws1,active: 2.27
16,CCAUAGACUAUUAUCCUUATT against Uhrf1bp1l,inactive: -0.282
17,GGAAUACGGAUUGAUGGAGTT against Fli1,active: 2.19
18,GCAACUCGACUGGUACUCUTT against Peg10,inactive: 0.874
19,GGAGCUGAAUGAAAACCAGTT against Taok1,inactive: -0.809
20,CGUGUAUCUAGUCAUACGGTT against Tap2,inactive: -0.172
21,GCACAAGCUGAAGAAGUCATT against S100b,inactive: 0.295
22,GAGCCAUAUACCUCGUCCUTT against Mier2,inactive: -0.531
23,GGGAGAGACAUAUAUCCUGTT against Snhg11,inactive: 0.107
24,GAAAAGCCUAUGUAACUUCTT against Iltifb,inactive: 1.5
25,CCAGUGAAGGUUUACUACUTT against Mrpl1,inactive: 0.0287
26,GGAAAUCUACGAUUUCUAATT against Cyria,active: 2.55
27,GGAUAAUCUUGCUGAAAACTT against Clec11a,inactive: 0.5
28,GGGAGGUCAAAAACUUCCATT against Coq3,inactive: -0.485
29,GCUGGUGACUUGUAAAAGCTT against Meox1,inactive: -0.0787
30,GGACUGCAUCCAAAUUCCATT against Dynll1,inactive: 0.298

# From entry 28 as far as 29, as listed above:
row,Sequence,z-score
28,GGGAGGUCAAAAACUUCCATT against Coq3,inactive: -0.485
29,GCUGGUGACUUGUAAAAGCTT against Meox1,inactive: -0.0787
